This is one part of the list.
Key:
Experiment in all cases: log2 fold change, soluble protein after heating vs DMSO (PISA); higher = thermal stabilisation; K562 cells, 10 uM, 30 min; active = over 0.2 and 3.5 SD of the protein, either way, in both replicates (recomputed)
saracatinib = compound: CN1CCN(CCOc2cc(OC3CCOCC3)c3c(Nc4c(Cl)ccc5c4OCO5)ncnc3c2)CC1 [saracatinib]
Method in brief: (§1)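 K562 cells at 2×10^6 cells/mL were treated with 10 μM compound for 30 min. Aliquots were heated for 3 min across 48°C-58°C, pooled, and extracted in PBS with 0.5% NP-40 at 4°C; soluble protein was the supernatant after 21,000xg for 90 min. Soluble protein was quantified by TMTpro 16plex LC-MS/MS with channel sums equalised, and reported as log2 fold change in thermal stability against DMSO controls, with values from duplicates.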

By UniProt entry, the sequences of proteins in these tests, tags left out. Where a name states a change or a piece, a line headed by the entry shows the natural chain unless it says otherwise.
UniProt Q96JC1: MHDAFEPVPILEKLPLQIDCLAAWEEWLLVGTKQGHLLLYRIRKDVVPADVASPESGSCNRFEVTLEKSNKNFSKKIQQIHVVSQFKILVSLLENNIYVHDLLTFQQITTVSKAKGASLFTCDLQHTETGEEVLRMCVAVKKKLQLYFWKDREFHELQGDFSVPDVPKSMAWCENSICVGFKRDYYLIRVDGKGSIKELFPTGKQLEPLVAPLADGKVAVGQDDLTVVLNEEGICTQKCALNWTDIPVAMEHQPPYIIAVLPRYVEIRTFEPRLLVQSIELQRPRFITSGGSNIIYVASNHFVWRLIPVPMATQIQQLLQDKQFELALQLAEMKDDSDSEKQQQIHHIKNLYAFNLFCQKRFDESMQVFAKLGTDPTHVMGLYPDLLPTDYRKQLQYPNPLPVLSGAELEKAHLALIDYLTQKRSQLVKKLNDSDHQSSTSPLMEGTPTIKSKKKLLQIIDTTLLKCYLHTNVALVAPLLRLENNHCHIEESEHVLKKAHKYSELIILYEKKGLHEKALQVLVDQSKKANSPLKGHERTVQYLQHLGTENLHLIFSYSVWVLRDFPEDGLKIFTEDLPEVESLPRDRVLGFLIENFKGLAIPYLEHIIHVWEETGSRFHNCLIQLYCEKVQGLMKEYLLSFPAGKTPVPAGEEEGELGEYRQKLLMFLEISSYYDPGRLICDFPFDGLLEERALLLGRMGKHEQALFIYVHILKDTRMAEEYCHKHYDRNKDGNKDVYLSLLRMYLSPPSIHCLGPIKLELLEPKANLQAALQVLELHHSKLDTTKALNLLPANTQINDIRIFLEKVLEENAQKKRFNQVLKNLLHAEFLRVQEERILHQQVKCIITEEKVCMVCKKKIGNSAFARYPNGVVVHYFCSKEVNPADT
UniProt P30291: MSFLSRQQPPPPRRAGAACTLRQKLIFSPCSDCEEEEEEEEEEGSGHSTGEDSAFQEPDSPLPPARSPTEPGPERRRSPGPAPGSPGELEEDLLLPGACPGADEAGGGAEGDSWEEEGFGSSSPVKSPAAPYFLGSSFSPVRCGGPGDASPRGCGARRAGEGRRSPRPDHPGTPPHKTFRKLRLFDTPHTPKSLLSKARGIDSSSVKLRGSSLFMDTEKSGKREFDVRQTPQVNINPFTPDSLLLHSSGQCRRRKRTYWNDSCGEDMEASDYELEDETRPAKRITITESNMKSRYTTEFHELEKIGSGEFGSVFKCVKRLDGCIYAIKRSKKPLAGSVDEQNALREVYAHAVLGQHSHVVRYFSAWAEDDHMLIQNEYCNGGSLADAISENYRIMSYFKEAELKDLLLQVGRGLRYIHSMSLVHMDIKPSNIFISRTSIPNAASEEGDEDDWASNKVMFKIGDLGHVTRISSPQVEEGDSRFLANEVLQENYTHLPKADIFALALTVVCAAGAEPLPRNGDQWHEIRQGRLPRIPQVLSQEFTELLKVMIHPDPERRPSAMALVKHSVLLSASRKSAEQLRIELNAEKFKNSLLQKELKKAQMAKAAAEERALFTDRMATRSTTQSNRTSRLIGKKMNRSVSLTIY
UniProt Q96P53: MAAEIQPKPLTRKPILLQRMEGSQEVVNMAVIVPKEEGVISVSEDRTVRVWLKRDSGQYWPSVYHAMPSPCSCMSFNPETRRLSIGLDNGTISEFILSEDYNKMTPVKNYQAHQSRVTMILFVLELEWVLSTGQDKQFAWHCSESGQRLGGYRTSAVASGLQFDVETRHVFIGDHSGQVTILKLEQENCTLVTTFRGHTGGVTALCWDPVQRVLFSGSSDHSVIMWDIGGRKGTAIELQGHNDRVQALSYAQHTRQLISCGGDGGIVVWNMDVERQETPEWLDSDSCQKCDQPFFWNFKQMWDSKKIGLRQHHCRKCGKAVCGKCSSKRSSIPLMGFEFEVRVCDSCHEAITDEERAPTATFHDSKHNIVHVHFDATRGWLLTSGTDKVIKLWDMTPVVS
UniProt Q8NEZ2: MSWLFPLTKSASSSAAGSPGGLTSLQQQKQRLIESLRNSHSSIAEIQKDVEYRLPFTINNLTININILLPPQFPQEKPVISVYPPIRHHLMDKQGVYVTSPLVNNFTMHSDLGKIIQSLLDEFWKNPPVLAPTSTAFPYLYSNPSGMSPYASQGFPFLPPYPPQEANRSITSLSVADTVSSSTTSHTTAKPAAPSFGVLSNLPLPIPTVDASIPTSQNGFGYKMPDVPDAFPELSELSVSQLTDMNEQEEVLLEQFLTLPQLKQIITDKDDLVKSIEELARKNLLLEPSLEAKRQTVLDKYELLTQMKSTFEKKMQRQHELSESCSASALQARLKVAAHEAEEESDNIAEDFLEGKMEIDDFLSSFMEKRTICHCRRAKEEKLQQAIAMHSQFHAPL
UniProt Q9Y2I8: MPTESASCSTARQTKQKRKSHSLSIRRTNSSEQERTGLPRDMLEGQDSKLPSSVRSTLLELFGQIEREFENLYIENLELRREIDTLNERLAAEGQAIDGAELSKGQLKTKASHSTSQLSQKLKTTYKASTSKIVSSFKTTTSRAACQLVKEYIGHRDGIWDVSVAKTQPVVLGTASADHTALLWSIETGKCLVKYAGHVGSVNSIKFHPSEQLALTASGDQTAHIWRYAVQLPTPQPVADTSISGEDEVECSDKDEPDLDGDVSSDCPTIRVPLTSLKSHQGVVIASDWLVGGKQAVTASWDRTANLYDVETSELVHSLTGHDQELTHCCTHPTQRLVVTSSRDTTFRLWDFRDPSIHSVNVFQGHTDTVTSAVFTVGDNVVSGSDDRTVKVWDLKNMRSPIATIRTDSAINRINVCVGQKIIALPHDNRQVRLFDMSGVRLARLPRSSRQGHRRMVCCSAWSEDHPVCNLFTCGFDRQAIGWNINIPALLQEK
UniProt Q9NZC7: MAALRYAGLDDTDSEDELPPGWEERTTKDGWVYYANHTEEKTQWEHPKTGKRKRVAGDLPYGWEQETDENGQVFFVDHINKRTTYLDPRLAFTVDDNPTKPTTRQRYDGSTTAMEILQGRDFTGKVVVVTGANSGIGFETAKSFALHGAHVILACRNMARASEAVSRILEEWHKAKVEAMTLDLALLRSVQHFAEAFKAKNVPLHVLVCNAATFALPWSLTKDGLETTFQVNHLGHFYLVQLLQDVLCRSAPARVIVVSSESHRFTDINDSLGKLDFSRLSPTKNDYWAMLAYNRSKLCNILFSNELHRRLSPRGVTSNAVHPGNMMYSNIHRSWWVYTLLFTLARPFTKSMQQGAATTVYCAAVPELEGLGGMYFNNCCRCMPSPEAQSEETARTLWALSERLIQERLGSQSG
UniProt Q96RL7: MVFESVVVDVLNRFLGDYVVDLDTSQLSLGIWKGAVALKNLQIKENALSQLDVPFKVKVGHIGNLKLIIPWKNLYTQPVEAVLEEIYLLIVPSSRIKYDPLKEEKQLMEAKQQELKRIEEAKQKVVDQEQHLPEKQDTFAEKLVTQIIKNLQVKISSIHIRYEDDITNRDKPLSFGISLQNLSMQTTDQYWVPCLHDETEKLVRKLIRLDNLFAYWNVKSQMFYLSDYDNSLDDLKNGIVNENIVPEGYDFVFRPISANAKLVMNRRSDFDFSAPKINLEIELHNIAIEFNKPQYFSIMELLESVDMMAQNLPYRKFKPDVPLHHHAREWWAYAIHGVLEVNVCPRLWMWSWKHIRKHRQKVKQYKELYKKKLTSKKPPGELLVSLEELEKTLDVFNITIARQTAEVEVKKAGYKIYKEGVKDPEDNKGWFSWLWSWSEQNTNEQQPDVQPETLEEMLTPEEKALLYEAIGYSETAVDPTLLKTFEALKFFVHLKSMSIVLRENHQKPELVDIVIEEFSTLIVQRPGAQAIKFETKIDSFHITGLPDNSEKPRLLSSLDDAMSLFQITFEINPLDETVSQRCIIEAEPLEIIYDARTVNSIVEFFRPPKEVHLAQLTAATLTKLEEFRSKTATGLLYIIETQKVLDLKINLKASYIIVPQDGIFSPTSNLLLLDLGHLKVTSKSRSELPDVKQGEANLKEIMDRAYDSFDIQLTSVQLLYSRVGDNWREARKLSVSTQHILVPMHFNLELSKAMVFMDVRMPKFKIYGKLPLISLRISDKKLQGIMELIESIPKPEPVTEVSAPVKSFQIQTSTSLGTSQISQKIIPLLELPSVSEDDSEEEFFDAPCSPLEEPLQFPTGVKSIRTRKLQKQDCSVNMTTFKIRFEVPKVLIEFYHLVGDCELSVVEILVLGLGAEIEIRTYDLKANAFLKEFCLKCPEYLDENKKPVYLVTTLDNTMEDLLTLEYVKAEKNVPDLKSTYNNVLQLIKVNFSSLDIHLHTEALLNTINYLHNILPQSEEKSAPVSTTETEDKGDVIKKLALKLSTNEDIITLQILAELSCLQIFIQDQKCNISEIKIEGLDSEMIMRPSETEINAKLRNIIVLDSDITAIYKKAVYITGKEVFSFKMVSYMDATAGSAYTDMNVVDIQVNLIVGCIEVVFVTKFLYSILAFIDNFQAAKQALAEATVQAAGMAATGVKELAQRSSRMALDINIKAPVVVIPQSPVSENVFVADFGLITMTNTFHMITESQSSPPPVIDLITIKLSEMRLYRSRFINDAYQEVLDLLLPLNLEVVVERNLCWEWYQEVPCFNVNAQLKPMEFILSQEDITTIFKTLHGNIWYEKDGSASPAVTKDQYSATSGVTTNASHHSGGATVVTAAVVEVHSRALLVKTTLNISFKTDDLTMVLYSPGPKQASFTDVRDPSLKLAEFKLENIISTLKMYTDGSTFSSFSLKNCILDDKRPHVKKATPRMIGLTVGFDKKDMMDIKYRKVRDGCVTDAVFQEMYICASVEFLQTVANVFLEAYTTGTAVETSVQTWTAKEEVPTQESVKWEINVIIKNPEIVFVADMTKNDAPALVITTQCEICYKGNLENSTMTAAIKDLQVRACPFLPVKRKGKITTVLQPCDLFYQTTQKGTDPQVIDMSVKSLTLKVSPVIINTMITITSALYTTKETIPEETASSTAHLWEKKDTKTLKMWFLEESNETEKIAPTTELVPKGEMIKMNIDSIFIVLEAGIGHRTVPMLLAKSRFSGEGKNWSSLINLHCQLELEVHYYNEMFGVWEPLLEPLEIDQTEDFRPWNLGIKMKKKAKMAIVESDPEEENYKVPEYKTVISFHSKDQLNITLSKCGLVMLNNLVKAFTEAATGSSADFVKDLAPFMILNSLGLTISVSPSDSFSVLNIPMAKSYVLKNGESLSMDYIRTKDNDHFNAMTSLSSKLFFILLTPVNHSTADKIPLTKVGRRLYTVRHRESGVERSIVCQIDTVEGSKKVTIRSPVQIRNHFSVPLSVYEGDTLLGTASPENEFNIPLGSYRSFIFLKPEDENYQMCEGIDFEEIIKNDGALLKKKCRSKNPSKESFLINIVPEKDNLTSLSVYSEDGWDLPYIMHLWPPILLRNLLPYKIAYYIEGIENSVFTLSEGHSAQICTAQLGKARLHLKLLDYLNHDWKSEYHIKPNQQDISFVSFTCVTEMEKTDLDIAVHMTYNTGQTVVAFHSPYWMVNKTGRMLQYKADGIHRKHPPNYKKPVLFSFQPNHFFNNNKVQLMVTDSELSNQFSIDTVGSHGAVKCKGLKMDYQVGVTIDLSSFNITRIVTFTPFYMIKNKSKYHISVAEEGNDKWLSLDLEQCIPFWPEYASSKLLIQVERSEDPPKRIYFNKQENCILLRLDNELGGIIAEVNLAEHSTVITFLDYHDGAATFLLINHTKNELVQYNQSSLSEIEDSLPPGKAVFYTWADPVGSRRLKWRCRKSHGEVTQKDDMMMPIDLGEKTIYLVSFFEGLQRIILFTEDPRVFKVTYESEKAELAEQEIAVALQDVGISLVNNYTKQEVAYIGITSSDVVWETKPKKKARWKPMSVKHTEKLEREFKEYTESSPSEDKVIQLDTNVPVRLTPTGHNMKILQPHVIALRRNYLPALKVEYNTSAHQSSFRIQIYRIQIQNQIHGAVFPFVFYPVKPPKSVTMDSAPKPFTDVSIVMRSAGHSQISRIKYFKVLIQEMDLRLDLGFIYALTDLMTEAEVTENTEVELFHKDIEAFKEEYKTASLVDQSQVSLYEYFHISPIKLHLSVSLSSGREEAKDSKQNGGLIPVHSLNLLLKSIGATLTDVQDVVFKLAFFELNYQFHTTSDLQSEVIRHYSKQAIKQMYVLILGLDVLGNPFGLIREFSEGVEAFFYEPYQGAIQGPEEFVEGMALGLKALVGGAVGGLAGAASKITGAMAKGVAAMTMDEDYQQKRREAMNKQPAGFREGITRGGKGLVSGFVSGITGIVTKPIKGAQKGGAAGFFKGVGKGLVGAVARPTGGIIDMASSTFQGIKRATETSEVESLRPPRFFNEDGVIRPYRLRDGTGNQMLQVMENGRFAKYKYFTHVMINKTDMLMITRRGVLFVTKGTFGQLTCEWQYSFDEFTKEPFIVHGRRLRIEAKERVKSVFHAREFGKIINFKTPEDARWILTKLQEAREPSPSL

sotrastaurin = compound: CN1CCN(c2nc(C3=C(c4c[nH]c5ccccc45)C(=O)NC3=O)c3ccccc3n2)CC1 [sotrastaurin]
Method in brief: as §1

Tubastatin A = compound: CN1CCc2c(c3ccccc3n2Cc2ccc(C(=O)NO)cc2)C1 [Tubastatin A]
Method in brief: as §1

[1] = compound: CNC(=O)C1=CC=CC=C1NC2=NC(=NC=C2Cl)NC3=C(C=C(C=C3)N4CCOCC4)OC
Method in brief: as §1

defactinib = compound: CNC(=O)c1ccc(Nc2ncc(C(F)(F)F)c(NCc3nccnc3N(C)S(C)(=O)=O)n2)cc1 [defactinib]
Method in brief: as §1

rucaparib = compound: CNCc1ccc(-c2[nH]c3cc(F)cc4c3c2CCNC4=O)cc1 [rucaparib]
Method in brief: as §1

[2] = compound: CNc1nc(-c2ccc3c(N)n[nH]c3c2)cc(N2C[C@@H](C(=O)NC3CCCCC3)CC[C@H]2C)n1
Method in brief: as §1

encorafenib = compound: COC(=O)N[C@@H](C)CNc1nccc(-c2cn(C(C)C)nc2-c2cc(Cl)cc(NS(C)(=O)=O)c2F)n1 [encorafenib]
Method in brief: as §1

[3] = compound: COC(=O)[C@H](CCSC)NC(=O)C1=C(C=C(C=C1)NC[C@H](CS)N)C2=CC=CC=C2
Method in brief: as §1

[4] = compound: COC1=CC=C(C=C1)CN2C=CC3=C2C=C(C=C3)C(=O)NO
Method in brief: as §1

filanesib = compound: CON(C)C(=O)N1N=C(c2cc(F)ccc2F)S[C@@]1(CCCN)c1ccccc1 [filanesib]
Method in brief: as §1

zotarolimus = compound: CO[C@H]1C[C@@H]2CC[C@@H](C)[C@@](O)(O2)C(=O)C(=O)N2CCCC[C@H]2C(=O)O[C@H]([C@H](C)C[C@@H]2CC[C@H](n3cnnn3)[C@H](OC)C2)CC(=O)[C@H](C)/C=C(\C)[C@@H](O)[C@@H](OC)C(=O)[C@H](C)C[C@H](C)/C=C/C=C/C=C/1C [zotarolimus]
Method in brief: as §1

idasanutlin = compound: COc1cc(C(=O)O)ccc1NC(=O)[C@@H]1N[C@@H](CC(C)(C)C)[C@](C#N)(c2ccc(Cl)cc2F)[C@H]1c1cccc(Cl)c1F [idasanutlin]
Method in brief: as §1

alisertib = compound: COc1cc(Nc2ncc3c(n2)-c2ccc(Cl)cc2C(c2c(F)cccc2OC)=NC3)ccc1C(=O)O [alisertib]
Method in brief: as §1

[5] = compound: COc1cc2nc(-c3cc(F)ccc3O)nc(N[C@@H]3CNC[C@H]3C(C)(C)O)c2cc1OC
Method in brief: as §1

gefitinib = compound: COc1cc2ncnc(Nc3ccc(F)c(Cl)c3)c2cc1OCCCN1CCOCC1 [gefitinib]
Method in brief: as §1

[6] = compound: COc1cccc2cc(-c3nc([C@H]4CC[C@H](C(=O)O)CC4)n4ncnc(N)c34)[nH]c12
Method in brief: as §1

lapatinib = compound: CS(=O)(=O)CCNCc1ccc(-c2ccc3ncnc(Nc4ccc(OCc5cccc(F)c5)c(Cl)c4)c3c2)o1 [lapatinib]
Method in brief: as §1

pictilisib = compound: CS(=O)(=O)N1CCN(Cc2cc3nc(-c4cccc5[nH]ncc45)nc(N4CCOCC4)c3s2)CC1 [pictilisib]
Method in brief: as §1

alvocidib = compound: CN1CC[C@H](c2c(O)cc(O)c3c(=O)cc(-c4ccccc4Cl)oc23)[C@H](O)C1 [alvocidib]
Method in brief: as §1

Measured: log2 fold change

WASHC2C, A0A096LPC5
inactive: saracatinib -0.116 | sotrastaurin -0.09 | Tubastatin A -0.02 | [1] -0.019 | defactinib -0.121 | rucaparib 0.114 | [2] -0.02 | encorafenib 0.035 | [3] 0.052 | [4] -0.072 | filanesib 0.057 | zotarolimus -0.062 | idasanutlin 0.146 | alisertib -0.042 | [5] 0.305 | gefitinib 0.018 | [6] 0.098 | lapatinib -0.141 | pictilisib 0.048

VPS39 (UniProt Q96JC1)
inactive: saracatinib 0 | sotrastaurin -0.097 | Tubastatin A 0.033 | [1] -0.015 | defactinib -0.068 | rucaparib 0.039 | [2] 0.005 | encorafenib -0.006 | [3] -0.03 | [4] -0.038 | filanesib -0.119 | zotarolimus 0.023 | idasanutlin -0.028 | alisertib -0.012 | [5] 0.021 | gefitinib 0.051 | [6] -0.059 | lapatinib -0.012 | pictilisib -0.035

VDAC1 (UniProt C9JI87)
inactive: saracatinib -0.027 | sotrastaurin 0.034 | [1] -0.135 | rucaparib -0.247 | [2] -0.189 | encorafenib -0.087 | filanesib 0.001 | zotarolimus -0.217 | idasanutlin -0.018 | alisertib -0.119 | [5] 0.161 | gefitinib -0.014 | [6] -0.014 | lapatinib -0.182

WEE1 (UniProt P30291)
inactive: saracatinib 0.068 | sotrastaurin 0.007 | Tubastatin A 0.117 | [1] 0.075 | defactinib -0.029 | [2] -0.052 | [3] 0.082 | [4] -0.157 | filanesib 0.217 | zotarolimus -0.068 | idasanutlin 0.356 | alisertib -0.322 | [5] 0.039 | gefitinib -0.083 | [6] -0.615 | lapatinib 0.125 | pictilisib -0.095

WASHC5 (UniProt Q12768)
inactive: saracatinib 0.007 | sotrastaurin -0.02 | Tubastatin A 0.047 | [1] 0.062 | defactinib -0.032 | rucaparib 0.045 | [2] -0.009 | encorafenib 0.033 | [3] -0.033 | [4] -0.059 | filanesib -0.017 | zotarolimus 0.043 | idasanutlin 0.034 | alisertib -0.088 | [5] 0.083 | gefitinib 0.044 | [6] -0.021 | lapatinib -0.024 | pictilisib -0.05

WDFY2 (UniProt Q96P53)
inactive: saracatinib -0.013 | Tubastatin A -0.123 | [1] -0.054 | defactinib -0.057 | [2] 0.008 | [3] -0.12 | idasanutlin 0.086

WDR43 (UniProt Q15061)
inactive: saracatinib 0.031 | sotrastaurin 0.014 | Tubastatin A -0.045 | [1] 0.001 | defactinib 0.101 | rucaparib 0.07 | [2] -0.002 | encorafenib -0.009 | [3] -0.007 | [4] -0.014 | filanesib -0.019 | zotarolimus -0.017 | idasanutlin -0.072 | alisertib -0.061 | [5] 0.058 | gefitinib -0.006 | [6] 0.042 | lapatinib -0.025 | pictilisib 0.06

WASF1 (UniProt Q92558)
inactive: saracatinib -0.037 | alvocidib -0.117 | Tubastatin A -0.016 | [1] -0.047 | defactinib -0.054 | rucaparib 0.025 | [2] 0.064 | encorafenib 0 | [3] -0.006 | [4] -0.031 | zotarolimus 0.019 | idasanutlin -0.056 | alisertib -0.049 | [5] -0.011 | gefitinib 0.078 | [6] 0.154 | lapatinib 0.278 | pictilisib 0.125

VWA8 (UniProt A3KMH1)
inactive: saracatinib -0.012 | sotrastaurin -0.003 | Tubastatin A 0.072 | [1] 0.006 | defactinib -0.017 | rucaparib 0.008 | [2] -0.013 | encorafenib 0.003 | [3] -0.049 | [4] -0.025 | filanesib -0.052 | zotarolimus -0.027 | idasanutlin -0.119 | alisertib -0.037 | [5] 0.006 | gefitinib 0.011 | [6] 0.077 | lapatinib 0 | pictilisib 0.01

VPS37C (UniProt A5D8V6)
inactive: saracatinib 0 | alvocidib -0.105 | Tubastatin A 0.005 | [1] -0.053 | defactinib -0.032 | rucaparib -0.035 | [2] -0.05 | encorafenib 0.057 | [3] 0.067 | [4] -0.091 | zotarolimus 0.008 | idasanutlin 0.077 | alisertib -0.068 | [5] 0.08 | gefitinib 0.02 | [6] 0.02 | lapatinib -0.012 | pictilisib -0.011

VPS37A (UniProt Q8NEZ2)
inactive: saracatinib -0.043 | sotrastaurin -0.087 | Tubastatin A 0.002 | [1] 0.07 | defactinib -0.164 | [2] 0.065 | [3] 0.138 | [4] -0.046 | filanesib -0.011 | zotarolimus 0.107 | idasanutlin 0.002 | alisertib -0.054 | [5] 0.001 | gefitinib 0.05 | [6] 0.024 | lapatinib -0.035 | pictilisib 0.058

WDR37 isoform 2 (UniProt Q9Y2I8)
inactive: saracatinib -0.094 | sotrastaurin -0.01 | Tubastatin A -0.019 | [1] -0.077 | defactinib 0 | rucaparib 0.064 | [2] -0.108 | encorafenib 0.084 | [3] -0.007 | [4] 0.033 | filanesib 0.117 | zotarolimus -0.063 | idasanutlin 0.081 | alisertib -0.018 | [5] 0.034 | gefitinib -0.006 | [6] -0.029 | lapatinib 0.035 | pictilisib 0.046

WWOX (UniProt Q9NZC7)
inactive: sotrastaurin -0.111 | alvocidib -0.09 | Tubastatin A -0.086 | [1] -0.079 | filanesib 0.102 | zotarolimus 0.211 | alisertib -0.047 | [5] -0.162 | [6] 0.092 | lapatinib 0.038

VPS13A isoform 4 (UniProt Q96RL7)
inactive: Tubastatin A 0.028 | [1] -0.103 | [5] 0 | lapatinib -0.06
